# Laboratory results: the supplement of paper PMC11150407
# Counter-ions that a name gives are not always drawn. In all, about 2,100 compounds went through this assay and about 180 (8.6%) showed an effect of 50% or more. The list shows a part of the results.
# Test system: MOLM1 and UCSD/AML1 (averaged)
# Assay: cell viability relative to DMSO control (POC); higher = less growth inhibition
# Details: 1 µM; 72 h
# Experimental: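 Primary viability screen in the 3q26 EVI1-high AML cell lines MOLM1 and UCSD/AML1 (1.5e3 cells/well, 384-well), compounds at 1 uM for 72 h. ATP CellTiter-Glo read-out given as percent of viable cells over DMSO control (POC), averaged over duplicates. DMSO was the negative control and 5 uM etoposide the positive control. This mapping covers the MicroSource Spectrum and Selleck anticancer libraries (drug names).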
row,SMILES,cell viability [%]
1,Cc1ccc(Cl)c(Nc2ccccc2C(=O)O)c1Cl,103
2,CO[C@@]12[C@H](COC(N)=O)C3=C(C(=O)C(C)=C(N)C3=O)N1C[C@@H]1N[C@@H]12,13
3,CC(C(=O)O)c1ccc(N2Cc3ccccc3C2=O)cc1 (centres undefined),100
4,O=c1c(-c2ccc(O)cc2)coc2c([C@@H]3O[C@H](CO)[C@@H](O)[C@H](O)[C@H]3O)c(O)ccc12,120
5,O=C(O)C(S)C(S)C(=O)O (centres undefined),115
6,CCn1nc(C(=O)O)c(=O)c2cc3c(cc21)OCO3,96
7,Cc1cc(/C=C/c2ccc3cc(N(C)C)ccc3[n+]2C)c(C)n1-c1ccccc1,29.3
8,CCOC(=O)CCCCCCCCCCCCC1C=CCC1 (centres undefined),103
9,CC(C)=CCC/C(C)=C/CC/C(C)=C/CC/C(C)=C/CC/C(C)=C/CC/C(C)=C/CC/C(C)=C/CC/C(C)=C/CC/C(C)=C/CO,83.6
10,O=C(O[C@@H]1Cc2c(O)cc(O)cc2O[C@@H]1c1cc(O)c(=O)c2c(O)c(O)cc([C@H]3Oc4cc(O)cc(O)c4C[C@H]3O)c2c1)c1cc(O)c(O)c(O)c1,101
11,COC(=O)CC[C@@H](C)[C@H]1CC[C@H]2[C@@H]3CC[C@@H]4C[C@H](O)CC[C@]4(C)[C@H]3C[C@H](O)[C@]12C,97.4
12,C[C@@H]1O[C@@H](O[C@H]2[C@H](O[C@H]3CC[C@@]4(C)[C@@H](CC[C@]5(C)[C@@H]4CC=C4[C@@H]6CC(C)(C)CC[C@]6(C(=O)O[C@@H]6O[C@H](CO[C@@H]7O[C@H](CO)[C@@H](O[C@@H]8O[C@@H](C)[C@H](O)[C@@H](O)[C@H]8O)[C@H](O)[C@H]7O)[C@@H](O)[C@H](O)[C@H]6O)CC[C@]45C)[C@]3(C)CO)OC[C@H](O)[C@@H]2O)[C@H](O)[C@H](O)[C@H]1O,89.5
13,CNC(=O)c1cc(COc2nnc(Nc3ccc(Cl)cc3)c3ccoc23)ccn1 [Telatinib (BAY 57-9352)],94.5
14,CC(C)NC[C@@H](O)COc1cccc2ccccc12,102
15,CCc1cn([C@H]2C[C@H](O)[C@@H](CO)O2)c(=O)[nH]c1=O,91.5
16,COCC[n+]1c2c(n(Cc3cnccn3)c1C)C(=O)c1ccccc1C2=O [YM155 (Sepantronium Bromide)],3.93
17,C[C@@H]1CCN(C(=O)CC#N)C[C@@H]1N(C)c1ncnc2[nH]ccc12,72.1
18,CN(C)[C@@H]1C(O)=C(C(=O)NCN2CCCC2)C(=O)[C@@]2(O)C(O)=C3C(=O)c4c(O)cccc4[C@@](C)(O)[C@H]3C[C@@H]12,82.6
19,Cc1c(N(C)CS(=O)(=O)O)c(=O)n(-c2ccccc2)n1C,92.4
20,O=c1[nH]c(=O)n(C2CCCO2)cc1F (centres undefined),99.8
21,CC(NCCC(c1ccccc1)c1ccccc1)c1ccccc1 (centres undefined),104

row,SMILES,cell viability [%]
1,C1CNCCN1,100
2,COc1c2occc2c(OC)c2c(=O)cc(C)oc12,93.9
3,Nc1cc(C(Cl)=C(Cl)Cl)c(S(N)(=O)=O)cc1S(N)(=O)=O,101
4,C[C@H](CCC(=O)O)[C@H]1CC[C@H]2[C@@H]3[C@H](O)C[C@@H]4C[C@H](O)CC[C@]4(C)[C@H]3CC[C@]12C,108
5,O=C(/C=C/c1ccc(O)c(O)c1)OCCc1ccccc1,64.5
6,NCC(O)CC(=O)O (centres undefined),101
7,NNc1nncc2ccccc12,99.9
8,CC(=O)OCC(CCn1cnc2cnc(N)nc21)COC(C)=O,99.8
9,Cc1nc(=O)c2cc(CN(C)c3ccc(C(=O)N[C@@H](CCC(=O)O)C(=O)O)s3)ccc2[nH]1 [Raltitrexed (Tomudex)],102
10,CN1CCN(CCCN2c3ccccc3Sc3ccc(Cl)cc32)CC1,102
11,O=C1c2ccccc2C(=O)c2c1ccc(O)c2O,95.7
12,CC(=O)O[C@H]1CC[C@@]2(C)[C@@H](CC[C@@H]3[C@@H]2CC(=O)[C@]2(C)[C@@H]4[C@H](C[C@@H]32)O[C@]2(CC[C@@H](C)CO2)[C@H]4C)C1,88.1
13,CS(=O)(=O)N1CCc2c(-c3cnc(N)nc3)nc(N3CCOCC3)nc21,47.5
14,COC(=O)/C=C/C(C)=C\C=C\C(C)=C\C=C\C=C(C)\C=C\C=C(C)\C=C\C(=O)O,104
15,CC(=O)[C@]1(O)Cc2c(O)c3c(c(O)c2[C@@H](O[C@H]2C[C@H](N)[C@H](O)[C@H](C)O2)C1)C(=O)c1ccccc1C3=O [Idarubicin HCl],1.49
16,CC(C)C[C@@H](NC(=O)[C@H](C)NC(=O)CNC(=O)[C@@H](NC=O)C(C)C)C(=O)N[C@@H](C)C(=O)N[C@@H](C(=O)N[C@H](C(=O)N[C@H](C(=O)N[C@@H](Cc1c[nH]c2ccccc12)C(=O)N[C@H](CC(C)C)C(=O)N[C@@H](Cc1c[nH]c2ccccc12)C(=O)N[C@H](CC(C)C)C(=O)N[C@@H](Cc1c[nH]c2ccccc12)C(=O)N[C@H](CC(C)C)C(=O)N[C@@H](Cc1c[nH]c2ccccc12)C(=O)NCCO)C(C)C)C(C)C)C(C)C,5.86
17,O=c1c(O)c(-c2ccc(O)cc2O)oc2cc(O)cc(O)c12,101
18,COc1cc(-c2coc3cc(O[C@@H]4O[C@H](CO)[C@@H](O)[C@H](O)[C@H]4O)c(OC)c(O)c3c2=O)cc(O)c1OC,95.3
19,CCC(=O)O[C@]1(C(=O)CCl)[C@@H](C)C[C@H]2[C@@H]3CCC4=CC(=O)C=C[C@]4(C)[C@@]3(F)[C@@H](O)C[C@@]21C,65.7
20,O=C1C[C@@H](c2ccc(O)cc2)Oc2cc(O)cc(O)c21,88.5
21,c1ccc([C@H]2CN3CCSC3=N2)cc1,109

row,SMILES,cell viability [%]
1,O=C1OCCN1/N=C/c1ccc([N+](=O)[O-])o1,101
2,NC(=O)c1ccc([N+](=O)[O-])cc1Cl,103
3,CN(C)c1nc(N(C)C)nc(N(C)C)n1 [Altretamine (Hexalen)],95.9
4,CN(C)c1nc(N(C)C)nc(N(C)C)n1,103
5,O.O.O.O.O.O.O.O.O.O.O.O.O.O.O.O.O=S(=O)([O][Al])OC[C@H]1O[C@@](COS(=O)(=O)[O][Al])(O[C@H]2O[C@H](COS(=O)(=O)[O][Al])[C@@H](OS(=O)(=O)[O][Al])[C@H](OS(=O)(=O)[O][Al])[C@H]2OS(=O)(=O)[O][Al])[C@@H](OS(=O)(=O)[O][Al])[C@@H]1OS(=O)(=O)[O][Al],101
6,CC(C)NCC(O)c1ccc2ccccc2c1 (centres undefined),109
7,CC(=O)O[C@]1(C(C)=O)CC[C@H]2[C@@H]3C[C@H](C)C4=CC(=O)CC[C@]4(C)[C@H]3CC[C@@]21C,103
8,CC(=O)O[C@]1(C(C)=O)CC[C@H]2[C@@H]3C[C@H](C)C4=CC(=O)CC[C@]4(C)[C@H]3CC[C@@]21C [Medroxyprogesterone acetate],59.9
9,C[C@H]1C[C@@H]2[C@H]([C@@H](O)C[C@@]3(C)[C@H]2CC[C@]3(O)C(=O)CO)[C@@]2(C)C=CC(=O)C=C12,67.8
10,CS(=O)(=O)CCCCN=C=S,84.4
11,NC(=O)C(c1ccccc1)(c1ccccc1)[C@@H]1CCN(CCc2ccc3c(c2)CCO3)C1,84.9
12,CCCNCC(O)COc1ccccc1C(=O)CCc1ccccc1 (centres undefined),95.5
13,COc1cc([C@@H]2c3cc4c(cc3[C@@H](O[C@@H]3O[C@@H]5CO[C@@H](C)O[C@H]5[C@H](O)[C@H]3O)[C@H]3COC(=O)[C@H]23)OCO4)cc(OC)c1O,59.4
14,O=C(Nc1ccccc1)Nc1ccccc1,87.7
15,O=[N+]([O-])c1cccc2cn[nH]c12,102
16,COc1ccccc1OCC(O)CN1CCN(CC(=O)Nc2c(C)cccc2C)CC1 (centres undefined) [Ranolazine (Ranexa)],95.2
17,COc1ccccc1OCC(O)CN1CCN(CC(=O)Nc2c(C)cccc2C)CC1 (centres undefined),90.8
18,CCn1cc(C(=O)O)c(=O)c2cnc(N3CCNCC3)nc21,117
19,NCCS(=O)(=O)O,103
20,COc1cc2nc(N3CCN(C(=O)c4ccco4)CC3)nc(N)c2cc1OC,97.3
21,Cc1ccc(NC(=O)c2ccc(CN3CCN(C)CC3)cc2)cc1Nc1nc(-c2cccnc2)cs1 [Masitinib (AB1010)],25.7

# Copied from the list.
# COc1ccccc1OCC(O)CN1CCN(CC(=O)Nc2c(C)cccc2C)CC1 (centres undefined) [Ranolazine (Ranexa)] | cell viability [%]: 95.2
# NCCS(=O)(=O)O | cell viability [%]: 103
# CCC(=O)O[C@]1(C(=O)CCl)[C@@H](C)C[C@H]2[C@@H]3CCC4=CC(=O)C=C[C@]4(C)[C@@]3(F)[C@@H](O)C[C@@]21C | cell viability [%]: 65.7

# Further results.

row,SMILES,cell viability [%]
1,CC(=O)Oc1ccc2c(c1C(C)C)CCC1C(C)(C)CCC[C@]21C (some centres undefined),91.9
2,COc1ccc(-c2cc(=O)c3c(O)cc(O)cc3o2)cc1,91.9
3,CC(=O)N[C@@H](CC(=O)N[C@@H](CCC(=O)O)C(=O)O)C(=O)O,101
4,O=c1c(O)cccc2cc(O)c(O)c(O)c12,92
5,Cc1ccc(S(=O)(=O)NC(=O)NN2CC3CCCC3C2)cc1 (centres undefined),115
6,CC(=O)O[C@H]1CC[C@@]2(C)[C@H](CC[C@@H]3[C@@H]2CC[C@]2(C)[C@@H]4[C@H](C[C@@H]32)O[C@]2(CC[C@@H](C)CO2)[C@H]4C)C1,94.2
7,C#CCN(C)Cc1ccccc1,105
8,CCn1cc(C(=O)O)c(=O)c2ccc(C)nc21,89.7
9,C[C@H]1[C@@H](O)O[C@@H]2O[C@@]3(C)CC[C@H]4[C@H](C)CC[C@@H]1[C@@]24OO3,101
10,CCCCCC(C)N (centres undefined),89.3
11,COc1ccc2cc(CCC(C)=O)ccc2c1,103
12,O=C(O)CCC(=O)OC[C@@H](NC(=O)C(Cl)Cl)[C@H](O)c1ccc([N+](=O)[O-])cc1,40.2
13,O=C(CCCN1CC=C(n2c(=O)[nH]c3ccccc32)CC1)c1ccc(F)cc1,100
14,CCN(CC)CCNC(=O)c1cc(S(C)(=O)=O)ccc1OC,102
15,Oc1c(I)cc(I)c2cccnc12,117
16,CCN(Cc1ccncc1)C(=O)C(CO)c1ccccc1 (centres undefined),90.2
17,OC(CCN1CCCCC1)(c1ccccc1)C1CC2C=CC1C2 (centres undefined),97.1
18,Cc1ncc([N+](=O)[O-])n1CCO,95.8
19,CCN(CC)CC#CCOC(=O)C(O)(c1ccccc1)C1CCCCC1 (centres undefined),90.2
20,COc1ccc2[nH]cc(CCNC(C)=O)c2c1,98.6
21,O=C([O-])c1ccccc1O.[Na+],102

# Fetched one by one from above:
row,SMILES,cell viability [%]
8,CCOC(=O)CCCCCCCCCCCCC1C=CCC1 (centres undefined),103
17,C[C@@H]1CCN(C(=O)CC#N)C[C@@H]1N(C)c1ncnc2[nH]ccc12,72.1
6,CC(=O)O[C@H]1CC[C@@]2(C)[C@H](CC[C@@H]3[C@@H]2CC[C@]2(C)[C@@H]4[C@H](C[C@@H]32)O[C@]2(CC[C@@H](C)CO2)[C@H]4C)C1,94.2
4,O=c1c(O)cccc2cc(O)c(O)c(O)c12,92
